Measured values reported in paper doi:10.1101/2023.04.27.537399.
No constants are given. Whether binding was seen depends on the method and setting.

Molecular target: T1, CheV1 (full length, from pKNT25-cheV1) (H. pylori) (UniProt O24864)
T1 sequence: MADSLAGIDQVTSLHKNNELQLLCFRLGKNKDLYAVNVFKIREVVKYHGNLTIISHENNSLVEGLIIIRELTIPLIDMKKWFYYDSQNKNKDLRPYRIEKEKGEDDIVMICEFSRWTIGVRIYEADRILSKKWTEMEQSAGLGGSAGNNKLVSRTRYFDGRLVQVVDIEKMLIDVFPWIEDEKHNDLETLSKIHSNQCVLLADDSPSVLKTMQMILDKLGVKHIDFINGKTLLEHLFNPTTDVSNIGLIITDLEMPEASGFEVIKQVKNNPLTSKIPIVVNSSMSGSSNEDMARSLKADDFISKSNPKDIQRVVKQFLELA
Assay: two-hybrid

Substance: HPG27_252 (full length) with the adenyl cyclase T18 fragment at the C-terminal end (H. pylori G27)
- binding: no binding
